This note sets out measurements from PMC7775567.

By UniProt entry, the sequences of proteins in these tests, tags left out.
UniProt P70478: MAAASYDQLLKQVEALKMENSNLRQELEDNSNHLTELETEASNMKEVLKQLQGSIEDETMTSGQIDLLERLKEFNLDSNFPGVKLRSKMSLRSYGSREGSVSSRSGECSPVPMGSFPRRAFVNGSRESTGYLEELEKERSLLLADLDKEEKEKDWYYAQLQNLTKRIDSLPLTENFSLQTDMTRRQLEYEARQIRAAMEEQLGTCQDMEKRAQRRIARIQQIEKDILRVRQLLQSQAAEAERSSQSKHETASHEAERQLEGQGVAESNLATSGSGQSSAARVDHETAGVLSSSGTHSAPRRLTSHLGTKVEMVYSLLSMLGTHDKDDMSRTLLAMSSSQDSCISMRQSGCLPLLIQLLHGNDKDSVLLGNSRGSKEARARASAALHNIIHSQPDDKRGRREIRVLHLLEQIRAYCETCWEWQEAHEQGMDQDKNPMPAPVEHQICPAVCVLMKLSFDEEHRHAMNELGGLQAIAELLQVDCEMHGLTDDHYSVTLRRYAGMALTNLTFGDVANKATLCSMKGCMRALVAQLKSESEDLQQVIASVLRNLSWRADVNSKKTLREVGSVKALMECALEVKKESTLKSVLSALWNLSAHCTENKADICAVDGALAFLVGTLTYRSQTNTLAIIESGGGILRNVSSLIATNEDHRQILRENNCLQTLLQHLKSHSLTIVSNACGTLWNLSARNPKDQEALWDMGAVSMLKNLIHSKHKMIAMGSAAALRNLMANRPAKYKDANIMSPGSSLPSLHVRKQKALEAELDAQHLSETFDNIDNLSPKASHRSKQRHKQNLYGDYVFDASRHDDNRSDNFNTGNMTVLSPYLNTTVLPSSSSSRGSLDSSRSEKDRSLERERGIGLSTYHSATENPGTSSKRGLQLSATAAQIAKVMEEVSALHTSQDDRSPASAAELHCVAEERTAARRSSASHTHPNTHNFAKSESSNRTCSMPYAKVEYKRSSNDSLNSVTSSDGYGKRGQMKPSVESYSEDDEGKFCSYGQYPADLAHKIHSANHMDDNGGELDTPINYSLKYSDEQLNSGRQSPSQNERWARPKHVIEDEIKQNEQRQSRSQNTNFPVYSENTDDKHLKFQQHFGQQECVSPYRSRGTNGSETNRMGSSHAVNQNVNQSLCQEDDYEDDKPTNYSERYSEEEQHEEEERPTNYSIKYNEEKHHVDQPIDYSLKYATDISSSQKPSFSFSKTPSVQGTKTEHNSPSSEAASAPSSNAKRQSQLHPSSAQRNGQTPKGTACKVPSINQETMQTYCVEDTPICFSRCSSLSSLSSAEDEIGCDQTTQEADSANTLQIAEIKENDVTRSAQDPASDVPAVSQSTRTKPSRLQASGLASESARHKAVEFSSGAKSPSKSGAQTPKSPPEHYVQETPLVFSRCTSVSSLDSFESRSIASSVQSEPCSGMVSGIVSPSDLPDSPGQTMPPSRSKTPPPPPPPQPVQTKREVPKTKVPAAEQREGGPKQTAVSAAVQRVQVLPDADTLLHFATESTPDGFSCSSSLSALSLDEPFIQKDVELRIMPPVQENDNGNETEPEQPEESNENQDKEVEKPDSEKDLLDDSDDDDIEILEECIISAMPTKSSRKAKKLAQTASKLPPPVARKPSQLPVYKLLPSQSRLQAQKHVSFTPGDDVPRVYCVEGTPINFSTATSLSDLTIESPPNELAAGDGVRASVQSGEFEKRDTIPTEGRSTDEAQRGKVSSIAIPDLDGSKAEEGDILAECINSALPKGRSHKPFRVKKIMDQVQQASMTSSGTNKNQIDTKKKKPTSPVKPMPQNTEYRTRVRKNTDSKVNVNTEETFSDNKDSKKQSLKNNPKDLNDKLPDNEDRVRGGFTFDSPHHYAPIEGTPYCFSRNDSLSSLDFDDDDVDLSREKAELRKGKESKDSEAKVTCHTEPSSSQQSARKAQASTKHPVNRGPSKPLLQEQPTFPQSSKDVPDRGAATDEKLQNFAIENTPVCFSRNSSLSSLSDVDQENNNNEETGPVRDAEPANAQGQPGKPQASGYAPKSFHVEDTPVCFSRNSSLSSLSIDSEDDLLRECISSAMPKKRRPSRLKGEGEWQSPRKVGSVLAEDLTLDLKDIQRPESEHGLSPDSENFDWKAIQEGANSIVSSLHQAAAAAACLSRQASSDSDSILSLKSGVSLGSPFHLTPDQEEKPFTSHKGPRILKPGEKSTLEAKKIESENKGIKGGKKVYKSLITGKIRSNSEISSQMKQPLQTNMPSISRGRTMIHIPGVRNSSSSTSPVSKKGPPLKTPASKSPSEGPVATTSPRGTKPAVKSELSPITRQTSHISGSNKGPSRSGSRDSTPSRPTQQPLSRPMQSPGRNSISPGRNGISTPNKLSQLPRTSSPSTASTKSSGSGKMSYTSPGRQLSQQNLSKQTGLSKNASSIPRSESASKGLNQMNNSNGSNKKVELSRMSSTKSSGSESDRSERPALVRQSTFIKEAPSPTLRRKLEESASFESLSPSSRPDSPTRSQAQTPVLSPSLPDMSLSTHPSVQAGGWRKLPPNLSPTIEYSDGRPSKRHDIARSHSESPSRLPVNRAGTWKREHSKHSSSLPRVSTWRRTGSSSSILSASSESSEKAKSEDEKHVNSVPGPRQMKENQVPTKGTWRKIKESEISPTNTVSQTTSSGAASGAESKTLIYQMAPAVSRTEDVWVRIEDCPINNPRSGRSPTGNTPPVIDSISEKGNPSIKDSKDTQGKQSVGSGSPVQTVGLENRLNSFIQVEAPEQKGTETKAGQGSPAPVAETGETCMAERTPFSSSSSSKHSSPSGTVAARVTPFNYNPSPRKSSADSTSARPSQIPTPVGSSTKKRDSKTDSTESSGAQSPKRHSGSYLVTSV
UniProt O70239: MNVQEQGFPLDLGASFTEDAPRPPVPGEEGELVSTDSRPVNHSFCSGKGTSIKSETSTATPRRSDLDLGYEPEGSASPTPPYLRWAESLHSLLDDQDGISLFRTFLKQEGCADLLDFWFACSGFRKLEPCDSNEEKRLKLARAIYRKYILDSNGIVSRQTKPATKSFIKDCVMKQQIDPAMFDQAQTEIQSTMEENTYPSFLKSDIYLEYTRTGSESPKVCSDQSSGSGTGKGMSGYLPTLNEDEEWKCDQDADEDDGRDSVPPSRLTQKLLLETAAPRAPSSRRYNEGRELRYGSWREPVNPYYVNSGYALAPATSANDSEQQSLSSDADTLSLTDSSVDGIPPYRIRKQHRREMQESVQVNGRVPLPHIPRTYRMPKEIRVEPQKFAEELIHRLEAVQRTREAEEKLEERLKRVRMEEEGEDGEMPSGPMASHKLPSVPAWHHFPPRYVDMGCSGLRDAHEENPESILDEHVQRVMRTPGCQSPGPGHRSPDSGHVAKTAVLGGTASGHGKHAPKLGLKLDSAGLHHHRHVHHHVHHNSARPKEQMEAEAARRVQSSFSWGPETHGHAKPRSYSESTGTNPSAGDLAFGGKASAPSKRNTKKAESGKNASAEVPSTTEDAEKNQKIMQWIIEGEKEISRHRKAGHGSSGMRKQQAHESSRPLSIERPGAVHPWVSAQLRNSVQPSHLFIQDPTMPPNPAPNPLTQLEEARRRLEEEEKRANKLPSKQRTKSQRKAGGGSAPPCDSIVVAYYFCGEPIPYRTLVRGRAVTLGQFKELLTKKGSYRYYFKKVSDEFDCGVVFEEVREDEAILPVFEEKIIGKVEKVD

These are yes or no findings as the source states them, for the method shown. Binding seen in cells or lysates may run through a third protein. Some binding calls cover weakened binding; strength is not graded here. Sequences can lack the tags named with a protein.

Test [1] concerns the target APC (rat (endogenous in primary neurons)) (UniProt P70478). The test is described as follows: co-IP; Neurons treated with astrocyte derived EV-CK1-IL1β (and control EVs) for 18 h; antibody against GSK3, Axin1 or APC coupled to Dynabeads M-450 Epoxy, incubated with cell lysate overnight at 4°C, washed three times with PBS; immunoblot probed for Myc tagged CK1.
Test [2] has as its target Axin1 (rat (endogenous in primary neurons)) (UniProt O70239). The description is as above.

B1: Myc-tagged CK1 (casein kinase 1; Csnk1a1) (enzyme, UniProt P97633 1-325)
chain: MASSSGSKAEFIVGGKYKLVRKIGSGSFGDIYLAINITNGEEVAVKLESQKARHPQLLYESKLYKILQGGVGIPHIRWYGQGKDYNVLVMDLLGPSLEDLFNFCSRRFTMKTVLMLADQMISRIEYVHTKNFIHRDIKPDNFLMGIGRHCNKLFLIDFGLAKKYRDNRTRQHIPYREDKNLTGTARYASINAHLGIEQSRRDDMESLGYVLMYFNRTSLPWQGLKAATKKQKYEKISEKKMSTPVEVLCKGFPAEFAMYLNYCRGLRFEEAPDYMYLRQLFRILFRTLNHQYDYTFDWTMLKQKAAQQAASSSGQGQQAQTPTGF
For B1, the binding result in test [1] was “binds”; in test [2], “no binding”.
